This assay addresses T1, GST-SET7 (human) (UniProt Q8WTS6).
T1 sequence: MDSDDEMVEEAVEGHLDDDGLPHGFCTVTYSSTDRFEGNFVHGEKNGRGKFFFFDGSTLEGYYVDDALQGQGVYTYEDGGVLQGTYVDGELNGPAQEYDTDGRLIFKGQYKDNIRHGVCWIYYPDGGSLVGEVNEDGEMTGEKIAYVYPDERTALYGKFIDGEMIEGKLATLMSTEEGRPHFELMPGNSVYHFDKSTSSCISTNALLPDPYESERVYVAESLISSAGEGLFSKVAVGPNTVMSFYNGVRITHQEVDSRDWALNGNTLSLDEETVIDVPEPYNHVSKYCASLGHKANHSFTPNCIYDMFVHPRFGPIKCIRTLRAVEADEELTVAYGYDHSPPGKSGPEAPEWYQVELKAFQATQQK
Description: pull-down; GST pull-down: GST or GST-SET7 preincubated with FEN1 WT or FEN1 KRR at 37°C for 15 min in GST buffer (20mM HEPES KOH pH 7.9, 150 mM KCl, 0.2 mM EDTA, 10% glycerol, 0.2% NP40, 0.5 mM DTT) with 1mg/ml bovine serum albumin; glutathione Sepharose beads at 4°C for 1h; detected by immunoblotting; both purified. Background: A western blot detects proteins with antibodies after separation by electrophoresis.

Chains of the proteins cited; added tags and fusions are not shown. Lines headed by an entry give the natural chain unless they say otherwise; changes in a name come on top. A line that says so, or that is headed by a name, gives the form on record, which may keep a tag or linker.
UniProt P39748: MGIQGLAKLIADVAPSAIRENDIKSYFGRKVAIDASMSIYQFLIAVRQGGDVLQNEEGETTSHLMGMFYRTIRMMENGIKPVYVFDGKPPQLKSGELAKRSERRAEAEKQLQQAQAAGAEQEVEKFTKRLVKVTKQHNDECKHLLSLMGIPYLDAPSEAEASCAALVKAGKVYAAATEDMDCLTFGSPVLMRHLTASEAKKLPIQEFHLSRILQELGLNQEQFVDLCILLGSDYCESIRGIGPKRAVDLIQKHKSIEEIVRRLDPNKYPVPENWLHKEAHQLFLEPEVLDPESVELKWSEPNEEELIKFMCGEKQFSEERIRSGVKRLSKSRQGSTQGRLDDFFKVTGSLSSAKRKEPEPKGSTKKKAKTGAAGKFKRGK
FEN1 KRR (P39748, form named): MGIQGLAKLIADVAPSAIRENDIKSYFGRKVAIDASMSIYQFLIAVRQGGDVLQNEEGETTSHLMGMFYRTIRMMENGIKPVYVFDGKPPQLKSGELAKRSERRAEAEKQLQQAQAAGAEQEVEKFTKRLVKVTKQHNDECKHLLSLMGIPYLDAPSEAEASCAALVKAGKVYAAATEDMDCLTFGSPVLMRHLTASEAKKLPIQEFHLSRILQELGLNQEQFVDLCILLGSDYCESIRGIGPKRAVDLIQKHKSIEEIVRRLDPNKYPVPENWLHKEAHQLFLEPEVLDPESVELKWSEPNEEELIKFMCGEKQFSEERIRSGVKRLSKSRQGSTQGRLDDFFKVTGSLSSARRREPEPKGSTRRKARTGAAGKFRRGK

Results are given in words; binding and its absence hold for the method and conditions named. Some binding calls cover weakened binding; strength is not graded here. Sequences can lack the tags named with a protein.

For the substance “FEN1 KRR (from UniProt P39748 1-380) (enzyme)”, the binding result is “binds”.
As for “FEN1 WT (from UniProt P39748 1-380) (enzyme)”, the binding result is recorded as “binds”.
